From patent publication US6329506 (dated 2001)

Assay: general procedure: Boc solid-phase peptide synthesis; 4-methylbenzhydrylamine (MBHA) resin, 200-400 mesh, 1% DVB, 0.45 mmol/g; DIC and HOBt (solid phase); EDC and HOBt (solution template coupling)
Details: whole synthesis, on resin substitution

| Substance | isolated yield [%] |
| --- | --- |
| Ac-(Gly-Nleu-Pro)3 -NH2 | 8 |
| Ac-(Gly-Nleu-Pro)6 -NH2 | 9 |
| Ac-(Gly-Nleu-Pro)10 -NH2 | 12 |
